{
  "sequences": {"note": "By UniProt entry, the sequences of proteins in these tests, tags left out.", "UniProt P50406, whole entry": "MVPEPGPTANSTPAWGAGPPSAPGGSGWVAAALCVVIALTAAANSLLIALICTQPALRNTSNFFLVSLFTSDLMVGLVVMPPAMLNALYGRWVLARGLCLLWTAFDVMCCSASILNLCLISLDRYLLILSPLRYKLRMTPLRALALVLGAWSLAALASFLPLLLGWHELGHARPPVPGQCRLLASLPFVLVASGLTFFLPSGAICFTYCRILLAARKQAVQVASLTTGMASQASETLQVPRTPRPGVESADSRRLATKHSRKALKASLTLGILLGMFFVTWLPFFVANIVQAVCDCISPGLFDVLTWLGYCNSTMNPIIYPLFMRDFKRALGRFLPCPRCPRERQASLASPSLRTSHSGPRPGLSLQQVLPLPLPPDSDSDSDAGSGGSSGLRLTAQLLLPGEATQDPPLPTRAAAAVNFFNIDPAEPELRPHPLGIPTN"},
  "source": "patent US20040242589A1",
  "about": "“3-arylsulfonyl-7-piperzinyl-indoles-benzofurans and -benzothiophenes with 5-ht6 receptor affinity for treating cns disorders” (priority 2001, published 2004)",
  "target": "T1, human cloned 5-HT6 receptors (Homo sapiens, UniProt P50406)",
  "T1 construct": "expressed in transfected cells",
  "test": "affinity for the 5-HT6 receptor (procedures of WO98/27081)",
  "format": "binding",
  "note": "Some results were stated once for a whole list of compounds, not compound by compound.",
  "data": [
    {"smiles": "O=S(=O)(c1ccccc1)c1c[nH]c2c(N3CCNCC3)cccc12", "note": "[Example E10, 3-(Phenyl)sulfonyl-7-piperazin-1-yl-1H-indole]", "values": [
      {"measurement": "pKi values at human cloned 5-HT6 receptors", "value": "> 8.0"}
    ]},
    {"smiles": "O=S(=O)(c1ccccn1)c1c[nH]c2c(N3CCNCC3)cccc12", "note": "[Example E15, 3-(2-Pyridyl)sulfonyl-7-piperazin-1-yl-1H-indole]", "values": [
      {"measurement": "pKi values at human cloned 5-HT6 receptors", "value": "> 8.0"}
    ]},
    {"smiles": "Cl.O=S(=O)(c1ccccc1)c1coc2c(N3CCNCC3)cccc12", "note": "[Example E20, 1-(3-Phenylsulfonyl-benzo[b]furan-7-yl)piperazine, hydrochloride]", "values": [
      {"measurement": "pKi values at human cloned 5-HT6 receptors", "value": "> 8.0"}
    ]},
    {"smiles": "Cl.O=S(=O)(c1ccccc1)c1csc2c(N3CCNCC3)cccc12", "note": "[Example E21, 3-Phenylsulfonyl-7-(1-piperazinyl)benzo[b]thiophene hydrochloride]", "values": [
      {"measurement": "pKi values at human cloned 5-HT6 receptors", "value": "> 8.0"}
    ]},
    {"smiles": "Cl.O=S(=O)(c1ccccc1)c1csc2c(N3CCNCC3)c(Cl)ccc12", "note": "[Example E22, 6-Chloro-3-phenylsulfonyl-7-(1-piperazinyl)-benzo[b]thiophene hydrochloride]", "values": [
      {"measurement": "pKi values at human cloned 5-HT6 receptors", "value": "> 8.0"}
    ]},
    {"smiles": "Cl.O=S(=O)(c1ccccc1)c1csc2c(N3CCNCC3)ccc(Cl)c12", "note": "[Example E23, 4-Chloro-3-phenylsulfonyl-7-(1-piperazinyl)-benzo[b]thiophene hydrochloride]", "values": [
      {"measurement": "pKi values at human cloned 5-HT6 receptors", "value": "> 8.0"}
    ]},
    {"smiles": "Cl.O=S(=O)(c1ccccc1)c1csc2c(N3CCNCC3)c(Cl)cc(Cl)c12", "note": "[Example E24, 4,6-Dichloro-3-phenylsulfonyl-7-(1-piperazinyl)-benzo[b]thiophene hydrochloride]", "values": [
      {"measurement": "pKi values at human cloned 5-HT6 receptors", "value": "> 8.0"}
    ]}
  ]
}
